PubChem BioAssay AID743454 – Peter MacCallum Cancer Centre, 2014

- Purpose: 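Knock-downs lowering viability or raising caspase 3/7 activity in vorinostat-treated resistant cells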 (primary screen)
- Cell system: human HCT116-VR colon cancer cells, selected for vorinostat resistance
- Reagent: siRNA pool against human genes, 40 nM siRNA pool
- Time to read-out: vorinostat for 24 h, read-out about 72 h after transfection
- Conditions: vorinostat at 2.5 µM final
- Detection: 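Cell viability by CellTiter-Fluor and caspase 3/7 activity by luminescence, each scaled to mock wells per plate, duplicates averaged, then robust z-scored over all plates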
- Scale: viability robust z-score: higher = more viable cells than screen typical; caspase robust z-score: higher = more caspase 3/7 activity than screen typical
- Call rule: 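Hits are knock-downs in viability class RV1/RV2 or caspase class CA1/CA2, excluding ones that killed cells in the no-drug cell-count arm; hits then retested with single siRNAs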
The whole screen tested about 18,000 reagents; this is an unselected part. In the full data, 450 (2.5%) were called active. 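Single biological run; no consistent viability z cut-off exists, so the class columns, not z-scores, define the calls.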 A number with no mark means an inactive call.

With SEMA3C (GeneID 10512), what was measured?
viability hit class: no change; caspase hit class: no change; viability robust z-score: -1.27; caspase robust z-score: 0.87

For ARAP3 (GeneID 64411), how do the results read?
viability hit class: no change; caspase hit class: no change; viability robust z-score: 0.24; caspase robust z-score: -0.18

For SS18 (GeneID 6760), what does the deposit list?
viability hit class: no change; caspase hit class: no change; viability robust z-score: 0.68; caspase robust z-score: -0.08

For KCNJ12 (GeneID 3768), what was measured?
viability hit class: no change; caspase hit class: no change; viability robust z-score: 0.7; caspase robust z-score: 0.19

What did the screen give for SLITRK6 (GeneID 84189)?
viability hit class: no change; caspase hit class: no change; viability robust z-score: 0.8; caspase robust z-score: -0.79

What did the screen give for RPS19 (GeneID 6223)?
viability hit class: no change; caspase hit class: no change; viability robust z-score: -3.7; caspase robust z-score: -1.84

With DRC9 (GeneID 84223), what does the deposit list?
viability hit class: no change; caspase hit class: no change; viability robust z-score: -1.21; caspase robust z-score: 0.59

What did the screen give for ELOVL3 (GeneID 83401)?
viability hit class: no change; caspase hit class: no change; viability robust z-score: 1.02; caspase robust z-score: 0.54

With METTL2B (GeneID 55798), what was measured?
viability hit class: no change; caspase hit class: no change; viability robust z-score: -2.25; caspase robust z-score: 0.13

With MAT2A (GeneID 4144), what was measured?
viability hit class: RV2 (reduced viability) (active); caspase hit class: no change; viability robust z-score: -3.48; caspase robust z-score: 0.38

What did the screen give for ZFP30 (GeneID 22835)?
viability hit class: no change; caspase hit class: no change; viability robust z-score: -0.03; caspase robust z-score: -0.56

How did the screen score HINT2 (GeneID 84681)?
viability hit class: no change; caspase hit class: no change; viability robust z-score: 0.52; caspase robust z-score: 0.32

With ZNF48 (GeneID 197407), how do the results read?
viability hit class: no change (active); caspase hit class: CA2 (caspase activation); viability robust z-score: -0.74; caspase robust z-score: 5.29

Called active (from the list above):
MAT2A (GeneID 4144) | viability hit class: RV2 (reduced viability) (active); caspase hit class: no change; viability robust z-score: -3.48; caspase robust z-score: 0.38
ZNF48 (GeneID 197407) | viability hit class: no change (active); caspase hit class: CA2 (caspase activation); viability robust z-score: -0.74; caspase robust z-score: 5.29

Next reagents:
For FOXD4 (GeneID 2298), what does the deposit list?
viability hit class: no change; caspase hit class: no change; viability robust z-score: 0.52; caspase robust z-score: 0.32

For UHMK1 (GeneID 127933), how do the results read?
viability hit class: no change; caspase hit class: no change; viability robust z-score: -0.16; caspase robust z-score: -0.43

Which result is listed for IFT22 (GeneID 64792)?
viability hit class: no change; caspase hit class: no change; viability robust z-score: -1.12; caspase robust z-score: -0.76

With TMEM140 (GeneID 55281), what was measured?
viability hit class: no change; caspase hit class: no change; viability robust z-score: 1.1; caspase robust z-score: -0.82

With SCEL (GeneID 8796), how do the results read?
viability hit class: no change; caspase hit class: no change; viability robust z-score: -0.26; caspase robust z-score: 0.76

With NHLRC3 (GeneID 387921), what does the deposit list?
viability hit class: no change; caspase hit class: no change; viability robust z-score: -0.55; caspase robust z-score: -0.06

How did the screen score RAMP2 (GeneID 10266)?
viability hit class: no change; caspase hit class: no change; viability robust z-score: 0.88; caspase robust z-score: 0.35

For PHLDB1 (GeneID 23187), what does the deposit list?
viability hit class: no change; caspase hit class: no change; viability robust z-score: -0.18; caspase robust z-score: 2.31
